Laboratory results as given in the supplement of paper PMC10849652.
This is one part of the list.

By UniProt entry, the sequences of proteins in these tests, tags left out. Where a name states a change or a piece, a line headed by the entry shows the natural chain unless it says otherwise.
UniProt Q92542, whole entry, looked up: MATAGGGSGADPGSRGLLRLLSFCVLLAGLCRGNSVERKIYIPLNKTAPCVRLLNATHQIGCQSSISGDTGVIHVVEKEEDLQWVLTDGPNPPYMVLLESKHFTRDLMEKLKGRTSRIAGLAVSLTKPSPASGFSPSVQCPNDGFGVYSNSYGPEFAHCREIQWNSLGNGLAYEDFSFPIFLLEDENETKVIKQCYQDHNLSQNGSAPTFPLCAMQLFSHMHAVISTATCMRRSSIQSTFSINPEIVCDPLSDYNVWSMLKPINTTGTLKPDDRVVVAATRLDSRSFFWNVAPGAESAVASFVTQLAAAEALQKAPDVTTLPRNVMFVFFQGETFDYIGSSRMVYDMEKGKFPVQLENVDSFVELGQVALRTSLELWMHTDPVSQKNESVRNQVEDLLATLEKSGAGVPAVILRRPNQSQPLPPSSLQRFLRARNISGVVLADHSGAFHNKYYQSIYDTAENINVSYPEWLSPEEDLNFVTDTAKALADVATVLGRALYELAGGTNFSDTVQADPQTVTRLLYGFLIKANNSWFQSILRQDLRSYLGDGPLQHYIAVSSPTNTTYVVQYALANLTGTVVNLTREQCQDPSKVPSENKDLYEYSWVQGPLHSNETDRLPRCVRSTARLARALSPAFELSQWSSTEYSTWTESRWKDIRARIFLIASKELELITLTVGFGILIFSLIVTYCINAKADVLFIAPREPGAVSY
UniProt O95544: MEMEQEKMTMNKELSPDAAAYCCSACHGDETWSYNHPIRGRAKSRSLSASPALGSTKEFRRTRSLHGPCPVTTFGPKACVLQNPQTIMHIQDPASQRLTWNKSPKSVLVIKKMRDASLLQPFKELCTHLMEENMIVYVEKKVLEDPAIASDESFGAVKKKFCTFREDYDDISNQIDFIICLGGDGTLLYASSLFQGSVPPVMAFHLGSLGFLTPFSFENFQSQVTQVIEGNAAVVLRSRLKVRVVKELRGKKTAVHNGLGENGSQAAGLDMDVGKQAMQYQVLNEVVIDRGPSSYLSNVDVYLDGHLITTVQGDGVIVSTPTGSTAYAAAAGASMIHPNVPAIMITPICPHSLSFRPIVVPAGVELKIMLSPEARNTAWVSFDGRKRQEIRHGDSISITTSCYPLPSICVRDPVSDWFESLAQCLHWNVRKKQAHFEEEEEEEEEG
UniProt P52848: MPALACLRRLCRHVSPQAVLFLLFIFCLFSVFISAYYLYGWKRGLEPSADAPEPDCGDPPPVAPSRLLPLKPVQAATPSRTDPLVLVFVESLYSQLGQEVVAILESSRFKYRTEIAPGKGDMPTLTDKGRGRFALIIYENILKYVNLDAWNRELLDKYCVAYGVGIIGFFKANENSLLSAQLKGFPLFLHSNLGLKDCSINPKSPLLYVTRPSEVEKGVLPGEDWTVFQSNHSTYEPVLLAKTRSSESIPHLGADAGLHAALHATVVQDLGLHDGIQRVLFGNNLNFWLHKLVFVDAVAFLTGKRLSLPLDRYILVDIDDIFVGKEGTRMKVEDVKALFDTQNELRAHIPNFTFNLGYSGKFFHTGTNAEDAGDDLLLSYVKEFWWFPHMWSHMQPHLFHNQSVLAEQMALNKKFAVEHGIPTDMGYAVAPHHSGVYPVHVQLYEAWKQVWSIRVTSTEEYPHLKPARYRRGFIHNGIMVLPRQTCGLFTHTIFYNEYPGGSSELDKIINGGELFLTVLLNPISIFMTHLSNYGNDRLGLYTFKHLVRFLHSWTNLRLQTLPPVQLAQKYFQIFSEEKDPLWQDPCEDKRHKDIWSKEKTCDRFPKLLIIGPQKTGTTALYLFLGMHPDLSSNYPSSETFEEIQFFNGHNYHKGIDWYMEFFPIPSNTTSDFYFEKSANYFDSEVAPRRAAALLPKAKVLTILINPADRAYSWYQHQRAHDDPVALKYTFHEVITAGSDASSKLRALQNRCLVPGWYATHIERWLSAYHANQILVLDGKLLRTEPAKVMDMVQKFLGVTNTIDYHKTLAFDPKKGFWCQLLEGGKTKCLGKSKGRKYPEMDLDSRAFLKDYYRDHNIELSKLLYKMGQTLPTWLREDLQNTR
UniProt O95299, whole entry, looked up: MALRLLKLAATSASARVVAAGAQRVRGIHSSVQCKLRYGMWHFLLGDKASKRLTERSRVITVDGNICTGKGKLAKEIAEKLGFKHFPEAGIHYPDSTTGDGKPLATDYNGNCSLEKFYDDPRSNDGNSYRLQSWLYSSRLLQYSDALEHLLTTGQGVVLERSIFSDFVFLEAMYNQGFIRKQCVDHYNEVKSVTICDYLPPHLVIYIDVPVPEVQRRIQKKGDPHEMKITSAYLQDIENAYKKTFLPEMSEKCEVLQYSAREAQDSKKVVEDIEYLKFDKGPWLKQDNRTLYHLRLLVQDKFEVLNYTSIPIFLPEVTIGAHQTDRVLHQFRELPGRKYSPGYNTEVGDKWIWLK
UniProt Q09161: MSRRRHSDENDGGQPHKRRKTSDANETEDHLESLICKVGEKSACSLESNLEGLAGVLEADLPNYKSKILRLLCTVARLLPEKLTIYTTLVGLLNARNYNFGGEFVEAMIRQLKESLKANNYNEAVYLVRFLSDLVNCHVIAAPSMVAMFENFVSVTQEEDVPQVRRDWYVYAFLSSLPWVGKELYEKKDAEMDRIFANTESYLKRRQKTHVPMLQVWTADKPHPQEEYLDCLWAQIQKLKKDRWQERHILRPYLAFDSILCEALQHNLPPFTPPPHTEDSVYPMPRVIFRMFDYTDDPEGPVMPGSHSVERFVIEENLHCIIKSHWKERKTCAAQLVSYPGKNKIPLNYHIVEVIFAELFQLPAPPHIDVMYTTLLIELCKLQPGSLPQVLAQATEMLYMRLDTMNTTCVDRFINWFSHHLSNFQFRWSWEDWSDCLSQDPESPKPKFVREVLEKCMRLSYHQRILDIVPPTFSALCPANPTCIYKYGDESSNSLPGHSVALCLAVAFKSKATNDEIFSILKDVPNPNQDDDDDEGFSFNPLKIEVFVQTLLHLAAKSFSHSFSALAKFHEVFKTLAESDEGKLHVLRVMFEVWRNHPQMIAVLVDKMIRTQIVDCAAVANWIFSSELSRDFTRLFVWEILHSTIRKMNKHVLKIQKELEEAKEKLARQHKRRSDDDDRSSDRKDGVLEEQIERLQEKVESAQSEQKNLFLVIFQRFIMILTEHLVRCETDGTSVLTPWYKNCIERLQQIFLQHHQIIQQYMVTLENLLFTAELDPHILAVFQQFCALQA
UniProt A2RRP1: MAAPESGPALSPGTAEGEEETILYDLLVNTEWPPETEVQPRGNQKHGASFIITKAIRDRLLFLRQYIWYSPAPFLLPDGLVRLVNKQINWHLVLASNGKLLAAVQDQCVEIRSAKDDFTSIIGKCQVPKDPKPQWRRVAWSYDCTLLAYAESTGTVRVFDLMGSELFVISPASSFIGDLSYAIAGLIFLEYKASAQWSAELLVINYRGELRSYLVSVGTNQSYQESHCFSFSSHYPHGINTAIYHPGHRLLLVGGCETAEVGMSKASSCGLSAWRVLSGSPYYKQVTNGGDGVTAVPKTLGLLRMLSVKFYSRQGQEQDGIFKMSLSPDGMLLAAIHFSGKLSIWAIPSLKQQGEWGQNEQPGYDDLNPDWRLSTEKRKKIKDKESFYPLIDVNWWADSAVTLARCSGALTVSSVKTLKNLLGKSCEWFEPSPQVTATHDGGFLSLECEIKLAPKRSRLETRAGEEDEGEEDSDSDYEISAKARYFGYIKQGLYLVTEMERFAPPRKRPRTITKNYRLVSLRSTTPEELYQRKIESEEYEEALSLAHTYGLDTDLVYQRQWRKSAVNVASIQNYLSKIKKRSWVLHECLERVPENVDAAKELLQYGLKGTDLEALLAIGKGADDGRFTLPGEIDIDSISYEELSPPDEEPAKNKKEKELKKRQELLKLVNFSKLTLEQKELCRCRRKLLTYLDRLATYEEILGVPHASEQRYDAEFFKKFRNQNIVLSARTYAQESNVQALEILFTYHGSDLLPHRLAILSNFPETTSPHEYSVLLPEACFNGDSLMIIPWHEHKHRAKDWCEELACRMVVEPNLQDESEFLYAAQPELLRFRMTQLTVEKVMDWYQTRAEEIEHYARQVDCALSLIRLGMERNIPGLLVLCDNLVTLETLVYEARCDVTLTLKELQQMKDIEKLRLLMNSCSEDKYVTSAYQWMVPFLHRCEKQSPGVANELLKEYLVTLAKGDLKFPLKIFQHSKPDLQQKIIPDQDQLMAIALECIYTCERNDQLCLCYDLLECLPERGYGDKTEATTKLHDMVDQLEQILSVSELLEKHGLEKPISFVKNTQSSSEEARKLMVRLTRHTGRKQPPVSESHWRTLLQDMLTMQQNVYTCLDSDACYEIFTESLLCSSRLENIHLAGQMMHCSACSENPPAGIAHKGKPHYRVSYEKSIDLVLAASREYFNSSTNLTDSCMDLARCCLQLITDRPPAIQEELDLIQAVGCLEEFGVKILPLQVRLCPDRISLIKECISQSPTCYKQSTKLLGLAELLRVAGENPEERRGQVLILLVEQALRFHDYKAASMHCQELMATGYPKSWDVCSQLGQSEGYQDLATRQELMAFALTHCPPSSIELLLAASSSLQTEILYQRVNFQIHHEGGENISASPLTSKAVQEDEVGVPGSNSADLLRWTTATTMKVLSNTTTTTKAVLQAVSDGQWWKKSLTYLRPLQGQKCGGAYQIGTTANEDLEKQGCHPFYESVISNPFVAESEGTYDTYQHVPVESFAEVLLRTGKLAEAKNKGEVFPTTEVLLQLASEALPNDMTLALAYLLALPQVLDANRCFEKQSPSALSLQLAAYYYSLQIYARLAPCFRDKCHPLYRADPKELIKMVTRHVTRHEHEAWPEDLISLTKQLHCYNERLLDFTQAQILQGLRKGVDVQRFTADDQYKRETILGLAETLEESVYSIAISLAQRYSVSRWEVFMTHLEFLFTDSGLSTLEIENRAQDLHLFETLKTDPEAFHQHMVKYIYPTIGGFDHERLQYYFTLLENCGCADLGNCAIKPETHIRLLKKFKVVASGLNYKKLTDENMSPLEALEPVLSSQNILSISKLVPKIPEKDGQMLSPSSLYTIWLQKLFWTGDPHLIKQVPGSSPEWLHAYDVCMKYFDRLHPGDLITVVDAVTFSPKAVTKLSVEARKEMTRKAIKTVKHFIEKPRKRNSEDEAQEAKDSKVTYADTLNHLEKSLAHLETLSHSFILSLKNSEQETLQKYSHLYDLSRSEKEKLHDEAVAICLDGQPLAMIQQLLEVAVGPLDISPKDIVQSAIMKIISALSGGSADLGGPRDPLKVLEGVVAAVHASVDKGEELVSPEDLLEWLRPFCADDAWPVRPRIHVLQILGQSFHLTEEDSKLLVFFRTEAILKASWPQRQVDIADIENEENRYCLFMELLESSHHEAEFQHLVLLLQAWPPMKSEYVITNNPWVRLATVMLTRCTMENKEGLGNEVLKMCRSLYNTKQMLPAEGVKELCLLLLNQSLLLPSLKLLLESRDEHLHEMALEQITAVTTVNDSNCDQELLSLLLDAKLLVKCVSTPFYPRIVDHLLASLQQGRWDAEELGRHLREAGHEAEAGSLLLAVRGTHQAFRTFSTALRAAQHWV
UniProt Q9NVZ3: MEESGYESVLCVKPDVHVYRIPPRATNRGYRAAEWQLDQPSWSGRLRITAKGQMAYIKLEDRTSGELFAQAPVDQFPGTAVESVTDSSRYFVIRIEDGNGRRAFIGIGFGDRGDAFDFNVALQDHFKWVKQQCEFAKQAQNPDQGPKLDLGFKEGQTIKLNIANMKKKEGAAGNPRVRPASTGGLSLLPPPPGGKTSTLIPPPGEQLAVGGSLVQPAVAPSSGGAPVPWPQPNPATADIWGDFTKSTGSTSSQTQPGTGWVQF
UniProt P56181: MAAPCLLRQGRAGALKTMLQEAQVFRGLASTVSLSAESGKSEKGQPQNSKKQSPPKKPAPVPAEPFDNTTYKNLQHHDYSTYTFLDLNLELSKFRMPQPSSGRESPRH
UniProt Q9UGV2: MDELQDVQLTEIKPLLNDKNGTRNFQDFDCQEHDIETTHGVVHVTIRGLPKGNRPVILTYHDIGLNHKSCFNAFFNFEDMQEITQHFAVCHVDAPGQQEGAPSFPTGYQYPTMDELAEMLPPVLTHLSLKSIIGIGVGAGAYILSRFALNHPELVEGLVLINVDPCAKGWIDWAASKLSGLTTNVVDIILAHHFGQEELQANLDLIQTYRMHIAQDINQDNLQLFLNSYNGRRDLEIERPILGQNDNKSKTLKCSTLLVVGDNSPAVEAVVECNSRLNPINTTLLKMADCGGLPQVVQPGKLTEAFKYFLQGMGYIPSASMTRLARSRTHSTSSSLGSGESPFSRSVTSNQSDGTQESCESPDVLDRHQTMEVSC
UniProt P54920: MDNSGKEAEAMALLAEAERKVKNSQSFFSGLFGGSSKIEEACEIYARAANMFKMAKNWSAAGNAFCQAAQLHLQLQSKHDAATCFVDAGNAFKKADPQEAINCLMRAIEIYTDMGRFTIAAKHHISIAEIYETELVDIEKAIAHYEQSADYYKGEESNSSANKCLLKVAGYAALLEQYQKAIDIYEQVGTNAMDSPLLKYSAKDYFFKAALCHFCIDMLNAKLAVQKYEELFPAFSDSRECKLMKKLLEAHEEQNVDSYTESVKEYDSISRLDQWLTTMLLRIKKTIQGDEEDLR

Key:
Test in all cases: log2 fold change, soluble protein after heating vs DMSO (PISA); higher = thermal stabilisation; K562 cells, 10 uM, 30 min; active = over 0.2 and 3.5 SD of the protein, either way, in both replicates (recomputed)
[1] = compound: COC1=CC=C(C=C1)CN2C=CC3=C2C=C(C=C3)C(=O)NO
How it was run: (§1)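 Soluble protein was defined as the supernatant after 21,000xg for 90 min. It came from K562 cells at 2×10^6 cells/mL given 10 μM compound for 30 min, heated in aliquots for 3 min across 48°C-58°C, pooled, and extracted in PBS with 0.5% NP-40 at 4°C, and was quantified by TMTpro 16plex LC-MS/MS with equalised channel sums. Thermal stability against control samples, from duplicates, is reported as log2 fold change.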

[2] = compound: CON(C)C(=O)N1N=C(c2cc(F)ccc2F)S[C@@]1(CCCN)c1ccccc1 [filanesib]
How it was run: as §1

[3] = compound: CO[C@H]1C[C@@H]2CC[C@@H](C)[C@@](O)(O2)C(=O)C(=O)N2CCCC[C@H]2C(=O)O[C@H]([C@H](C)C[C@@H]2CC[C@H](n3cnnn3)[C@H](OC)C2)CC(=O)[C@H](C)/C=C(\C)[C@@H](O)[C@@H](OC)C(=O)[C@H](C)C[C@H](C)/C=C/C=C/C=C/1C [zotarolimus]
How it was run: as §1

[4] = compound: COc1cc(C(=O)O)ccc1NC(=O)[C@@H]1N[C@@H](CC(C)(C)C)[C@](C#N)(c2ccc(Cl)cc2F)[C@H]1c1cccc(Cl)c1F [idasanutlin]
How it was run: as §1

[5] = compound: COc1cc(Nc2ncc3c(n2)-c2ccc(Cl)cc2C(c2c(F)cccc2OC)=NC3)ccc1C(=O)O [alisertib]
How it was run: as §1

[6] = compound: COc1cc2nc(-c3cc(F)ccc3O)nc(N[C@@H]3CNC[C@H]3C(C)(C)O)c2cc1OC
How it was run: as §1

[7] = compound: COc1cc2ncnc(Nc3ccc(F)c(Cl)c3)c2cc1OCCCN1CCOCC1 [gefitinib]
How it was run: as §1

[8] = compound: COc1cccc2cc(-c3nc([C@H]4CC[C@H](C(=O)O)CC4)n4ncnc(N)c34)[nH]c12
How it was run: as §1

[9] = compound: CS(=O)(=O)CCNCc1ccc(-c2ccc3ncnc(Nc4ccc(OCc5cccc(F)c5)c(Cl)c4)c3c2)o1 [lapatinib]
How it was run: as §1

[10] = compound: CS(=O)(=O)N1CCN(Cc2cc3nc(-c4cccc5[nH]ncc45)nc(N4CCOCC4)c3s2)CC1 [pictilisib]
How it was run: as §1

[11] = compound: CS(=O)(=O)c1ccc(-c2cnc(N)c(C(=O)Nc3ccccc3)n2)cc1
How it was run: as §1

[12] = compound: C[C@@H](Oc1cc(-c2cnn(C3CCNCC3)c2)cnc1N)c1c(Cl)ccc(F)c1Cl [crizotinib]
How it was run: as §1

[13] = compound: C[C@@H]1COCCN1C2=NC(=NC(=C2)C3(CC3)S(=O)(=O)C)C4=C5C=CNC5=CC=C4
How it was run: as §1

[14] = compound: C[C@H](C1=CC=C(C=C1)C(=O)NC2=C3C=CNC3=NC=C2)N
How it was run: as §1

[15] = compound: C[C@H](Nc1ncnc2nc[nH]c12)c1cc2cccc(Cl)c2c(=O)n1-c1ccccc1 [duvelisib]
How it was run: as §1

[16] = compound: Cc1cc(Nc2cc(CN3CCOCC3)c3nc(C)c(Cc4ccc(Cl)cc4F)n3n2)n[nH]1 [gandotinib]
How it was run: as §1

[17] = compound: Cc1cc(Nc2cc(N3CCN(C)CC3)nc(Sc3ccc(NC(=O)C4CC4)cc3)n2)n[nH]1 [tozasertib]
How it was run: as §1

[18] = compound: Cc1cc(SCc2sc(-c3ccc(C(F)(F)F)cc3)nc2C)ccc1OCC(=O)O
How it was run: as §1

[19] = compound: Cc1ccc(-n2nc(C(C)(C)C)cc2NC(=O)Nc2ccc(OCCN3CCOCC3)c3ccccc23)cc1 [doramapimod]
How it was run: as §1

[20] = compound: Cc1ccc(C(=O)N(CCCN)[C@@H](c2nc3cc(Cl)ccc3c(=O)n2Cc2ccccc2)C(C)C)cc1 [ispinesib]
How it was run: as §1

Measured: log2 fold change

NCSTN (UniProt Q92542)
inactive: [1] -0.091 | [2] 0.012 | [3] -0.028 | [4] -0.069 | [5] -0.009 | [6] -0.026 | [7] 0.022 | [8] 0.06 | [9] -0.043 | [10] 0.082 | [11] -0.02 | [12] -0.002 | [13] 0.143 | [14] 0.055 | [15] 0.01 | [16] -0.146 | [17] -0.013 | [18] -0.049 | [19] 0.029 | [20] 0.014

NADK (UniProt O95544)
inactive: [1] -0.002 | [2] -0.016 | [3] -0.009 | [4] 0.017 | [5] -0.093 | [6] 0.002 | [7] -0.014 | [8] 0.058 | [9] 0 | [10] 0.013 | [11] 0.001 | [12] 0.022 | [13] -0.027 | [14] -0.02 | [15] 0.063 | [16] -0.009 | [17] -0.029 | [18] -0.054 | [19] -0.002 | [20] 0.009

NDST1 (UniProt P52848)
inactive: [1] -0.069 | [2] 0.037 | [3] 0.133 | [4] 0.014 | [5] -0.001 | [6] 0.09 | [7] 0.009 | [8] 0.122 | [9] 0.047 | [10] -0.009 | [11] 0.007 | [12] 0.058 | [13] 0.054 | [14] 0.053 | [15] -0.014 | [16] 0.145 | [17] -0.039 | [18] -0.097 | [19] -0.035

NDUFA10 (UniProt O95299)
inactive: [1] -0.012 | [2] -0.026 | [3] 0.013 | [4] -0.188 | [5] 0.034 | [6] 0.033 | [7] -0.058 | [8] 0.073 | [9] -0.076 | [10] -0.009 | [11] 0.022 | [12] -0.047 | [13] 0.062 | [14] 0.035 | [15] 0.024 | [16] -0.134 | [17] -0.043 | [18] 0.022 | [19] -0.045 | [20] -0.122

NCBP1 (UniProt Q09161)
inactive: [1] 0.021 | [2] 0.003 | [3] -0.016 | [4] -0.096 | [5] -0.062 | [6] 0.062 | [7] -0.018 | [8] 0.029 | [9] 0.024 | [10] 0.19 | [11] 0.009 | [12] 0.004 | [13] 0.119 | [14] -0.017 | [15] 0.03 | [16] -0.01 | [17] 0.006 | [18] 0.009 | [19] -0.028 | [20] 0.003

NAF1 (UniProt Q96HR8)
inactive: [1] -0.016 | [2] 0.044 | [3] 0.041 | [4] -0.008 | [5] -0.02 | [6] 0.028 | [7] -0.072 | [8] 0.04 | [9] 0.026 | [10] 0.053 | [11] -0.009 | [12] 0.008 | [13] -0.071 | [14] 0.068 | [15] -0.053 | [16] 0.105 | [17] 0.012 | [18] -0.041 | [19] -0.035 | [20] 0.047

Two successive records from above, for reference:
NDUFA10 (UniProt O95299)
inactive: [1] -0.012 | [2] -0.026 | [3] 0.013 | [4] -0.188 | [5] 0.034 | [6] 0.033 | [7] -0.058 | [8] 0.073 | [9] -0.076 | [10] -0.009 | [11] 0.022 | [12] -0.047 | [13] 0.062 | [14] 0.035 | [15] 0.024 | [16] -0.134 | [17] -0.043 | [18] 0.022 | [19] -0.045 | [20] -0.122

NCBP1 (UniProt Q09161)
inactive: [1] 0.021 | [2] 0.003 | [3] -0.016 | [4] -0.096 | [5] -0.062 | [6] 0.062 | [7] -0.018 | [8] 0.029 | [9] 0.024 | [10] 0.19 | [11] 0.009 | [12] 0.004 | [13] 0.119 | [14] -0.017 | [15] 0.03 | [16] -0.01 | [17] 0.006 | [18] 0.009 | [19] -0.028 | [20] 0.003

Following part.

NBAS (UniProt A2RRP1)
inactive: [1] 0.027 | [2] 0.289 | [3] 0.174 | [4] 0.096 | [5] -0.08 | [6] -0.075 | [7] 0.002 | [8] -0.22 | [9] 0.099 | [10] -0.035 | [11] 0.082 | [12] -0.155 | [13] -0.148 | [14] 0.424 | [15] -0.035 | [16] 0.069 | [17] 0.128 | [18] 0.025 | [19] 0.242 | [20] -0.188

NECAP2 (UniProt Q9NVZ3)
inactive: [1] -0.002 | [2] -0.019 | [3] 0.029 | [4] -0.03 | [5] -0.062 | [6] -0.003 | [7] -0.002 | [8] 0.037 | [9] 0.022 | [10] 0.049 | [11] 0.028 | [12] -0.006 | [13] 0.022 | [14] -0.119 | [15] 0.02 | [16] -0.058 | [17] -0.055 | [18] -0.06 | [19] -0.037 | [20] 0.098

NDUFV3 isoform 2 (UniProt P56181)
inactive: [1] -0.117 | [2] 0.042 | [3] -0.03 | [4] 0.063 | [5] -0.048 | [6] -0.014 | [7] -0.017 | [8] 0.044 | [9] 0 | [10] 0 | [11] -0.017 | [12] -0.034 | [13] 0.022 | [14] -0.023 | [15] -0.053 | [16] -0.01 | [17] -0.054 | [18] -0.092 | [19] 0.009 | [20] -0.027

NDC1 (UniProt Q9BTX1)
inactive: [1] -0.066 | [2] -0.014 | [3] 0.005 | [4] -0.025 | [5] -0.035 | [6] 0 | [7] 0.017 | [8] 0.036 | [9] -0.012 | [10] 0.017 | [11] 0.03 | [12] 0.046 | [13] 0.058 | [14] -0.081 | [15] -0.001 | [16] 0.076 | [17] 0.026 | [18] 0 | [19] -0.01 | [20] -0.034

NDRG3 (UniProt Q9UGV2)
inactive: [1] -0.006 | [2] -0.08 | [3] 0.065 | [4] 0.033 | [5] -0.094 | [6] -0.054 | [7] 0.001 | [8] 0.044 | [9] -0.003 | [10] 0.082 | [11] -0.006 | [12] -0.044 | [13] 0.043 | [14] 0.123 | [15] 0.03 | [16] -0.063 | [17] -0.026 | [18] 0.057 | [19] 0.036 | [20] 0.005

NAA30 (UniProt Q147X3)
inactive: [1] -0.037 | [2] -0.093 | [3] 0.062 | [4] -0.027 | [5] -0.06 | [6] -0.047 | [7] 0.019 | [8] 0.067 | [9] 0.066 | [10] -0.004 | [11] -0.014 | [12] 0.006 | [13] 0.025 | [14] 0.005 | [15] 0.007 | [16] -0.108 | [17] -0.095 | [18] 0.024 | [19] 0.013 | [20] -0.054

NAPA (UniProt P54920)
inactive: [1] -0.01 | [2] -0.048 | [3] 0.02 | [4] -0.043 | [5] 0.043 | [6] -0.007 | [7] -0.012 | [8] -0.013 | [9] 0.003 | [10] 0.009 | [11] -0.033 | [12] 0.007 | [13] 0.025 | [14] -0.056 | [15] 0.046 | [16] -0.055 | [17] 0.031 | [18] 0.003 | [19] -0.015 | [20] 0.137

NAGA (UniProt P17050)
inactive: [1] -0.026 | [2] -0.078 | [3] -0.067 | [4] 0.036 | [5] 0.074 | [6] 0.005 | [7] -0.012 | [8] 0.079 | [9] 0.007 | [10] -0.044 | [11] -0.003 | [12] 0.049 | [13] 0.008 | [14] -0.081 | [15] 0.021 | [16] -0.039 | [17] -0.019 | [18] 0.002 | [19] -0.051 | [20] -0.125

NDUFA8 (UniProt P51970)
inactive: [1] -0.008 | [2] -0.072 | [3] -0.046 | [4] 0 | [5] -0.043 | [6] -0.065 | [7] -0.007 | [8] 0.012 | [9] -0.044 | [10] 0.044 | [11] 0.026 | [12] 0.042 | [13] 0.012 | [14] -0.022 | [15] 0.081 | [16] -0.071 | [17] 0.016 | [18] 0.012 | [19] -0.029 | [20] -0.024
